Source: the supplement of paper PMC7024190
Counter-ions that a name gives are not always drawn. The list shows a part of the results. Single values are uncertain here, since repeats match poorly.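 The cells were human embryonic kidney cells carrying a Renilla luciferase gene, driven by the HSV-TK promoter, on a plasmid put in briefly by transfection. This is the first-round screen of about ten thousand compounds, looking for ones that raise reporter output.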

Each molecule was assayed on HEK 293FT (assay: log relative Renilla luciferase luminescence (reporter expression vs reference, reference not stated) (log (base not stated)); higher = higher recombinant reporter expression). Conditions: 10 µM; time after transfection 48 h.

Structure (SMILES) | log
O=c1[nH]c2cc(Cl)ccc2c(O)c1-c1cccc(Oc2ccccc2)c1 | -0.0428
CN1CCC(Nc2ncc3ncnc(Nc4ccc(F)c(Cl)c4)c3n2)CC1 [BIBX 1382 dihydrochloride] | -0.0223
COc1cc2nc(N3CCN(C(=O)C4CCCO4)CC3)nc(N)c2cc1OC (stereo not given) [Terazosin hydrochloride] | 0.171
S=C(S)N1CCCC1 [Pyrrolidinedithiocarbamate ammonium] | -0.165
Cc1cccc(C(=O)NCN2CCN(c3ccccc3C#N)CC2)c1 | 0.0863
COc1ccccc1N1CCN(CCN2C(=O)CC3(CCCC3)CC2=O)CC1 [BMY 7378 dihydrochloride] | 0.023
O=C(NCCCN1CCC2(CC1)OCc1ccccc12)[C@H]1CCCN1Cc1ccccc1 | 0.0581
CC1CCN(CCCC(=O)c2ccc(F)cc2)CC1 [Melperone hydrochloride] | -0.00526
O=C1NC(=O)c2c1c(-c1ccccc1)cc1[nH]c3ccc(O)cc3c21 | -0.451
C#CCN1C(C)=C(C(=O)OC)C(c2cccc([N+](=O)[O-])c2)C(C(=O)OCC)=C1C (stereo not given) | 0.143
CCOC(=O)[C@H](CCc1ccccc1)N[C@H]1CCc2ccccc2N(CC(=O)O)C1=O [Benazepril hydrochloride] | -0.0206
CCCCCCCC/C=C\CCCCCCCC(=O)NCCO [Oleylethanolamide] | 0.137
Cn1ccc2cc(NC(=O)Nc3cccnc3)ccc21 | 0.126
CC[C@H](NC(=O)c1c(C)c(-c2ccccc2)nc2ccccc12)c1ccccc1 | -0.044
NC(N)=NC(N)=Nc1cccc(Cl)c1 [m-Chlorophenylbiguanide hydrochloride] | 0.103
Cc1ccccc1N=Nc1ccc(NC(=O)c2ccnn2C)c(C)c1 | 0.037
NCCNC(=O)c1ccc(Cl)cn1 [Lazabemide hydrochloride] | -0.0566
COc1cccc(CCc2ccccc2OCC[C@@H]2C[C@@H](O)CN2C)c1 | 0.0895
CNCCCCOc1ccccc1Cc1ccccc1 [Bifemelane hydrochloride] | 0.00106
CN1CC(=O)N=C1NC(=O)Nc1cccc(Cl)c1 [Fenobam] | -0.139

No new results follow: entries from further up.
Structure (SMILES) | log
CCCCCCCC/C=C\CCCCCCCC(=O)NCCO [Oleylethanolamide] | 0.137
Cn1ccc2cc(NC(=O)Nc3cccnc3)ccc21 | 0.126
CC[C@H](NC(=O)c1c(C)c(-c2ccccc2)nc2ccccc12)c1ccccc1 | -0.044

(continued)

Structure (SMILES) | log
CCC(C)(C)C(=O)O[C@H]1C[C@@H](C)C=C2C=C[C@H](C)[C@H](CC[C@@H]3C[C@@H](O)CC(=O)O3)[C@H]21 [Simvastatin] | 0.0449
O=C1c2ccccc2CCC1CNCCc1ccc(O)cc1 (stereo not given) [HEAT hydrochloride] | -0.0131
O=C(c1ccc(OCCN2CCCCC2)cc1)c1c(-c2ccc(O)cc2)sc2cc(O)ccc12 [Raloxifene hydrochloride] | 0.00137
O=C1NC(=O)c2cc(Nc3ccccc3)c(Nc3ccccc3)cc21 | 0.0341
OC[C@H]1O[C@@H](n2cnc3c(N[C@H]4CCC[C@@H]4O)ncnc32)[C@H](O)[C@@H]1O | 0.0778
COc1cc2c(CCNC(C)=O)c[nH]c2cc1Cl [6-Chloromelatonin] | 0.116
Nc1ncnc2c1nc(Br)n2[C@@H]1O[C@@H]2COP(=O)(O)O[C@H]2[C@H]1O [8-Bromo-cAMP, sodium salt] | -0.03
NC[C@@H]1O[C@H](C23CC4CC(CC(C4)C2)C3)Cc2c1ccc(O)c2O | 0.0427
COc1cc(/C=C(\C#N)C(N)=O)cc(CSc2nc3ccccc3s2)c1O | -0.0209
C1COC(NC(C2CC2)C2CC2)=N1 [Rilmenidine hemifumarate] | 0.101
CC(C)n1nnc2cc(C(=O)O)ccc21 | 0.0331
CCc1ccc2c(-c3cccc(Cl)c3)nc(=O)n(CC)c2n1 | 0.148
N[C@@H](CC(=O)Nc1ccc(Oc2cc(F)c(F)cc2Br)cc1)C(=O)O | -0.0566
COc1ccc(NS(=O)(=O)c2ccc(I)cc2)cc1N1CCN(C)CC1 | 0.134
CCS(=O)(=O)N(C)[C@H]1c2cc(C#N)ccc2OC(C)(C)[C@@H]1O [(-)-[3R,4S]-Chromanol 293B] | 0.0637
Nc1nnc(Sc2ncc([N+](=O)[O-])s2)s1 | 0.031
CC1(c2ccccc2)OC(C(=O)O)=CC1=O (stereo not given) [Acifran] | -0.185
CCC(=O)O[C@]1(C(=O)SCF)[C@H](C)C[C@H]2[C@@H]3C[C@H](F)C4=CC(=O)C=C[C@]4(C)[C@@]3(F)[C@@H](O)C[C@@]21C [Fluticasone propionate] | 0.00849
O=C(O)C1CCCN(CCC=C(c2ccccc2)c2ccccc2)C1 (stereo not given) | 0.028
CN1CCN(CCc2ccc(Cl)c(Cl)c2)CC1 [BD 1063 dihydrochloride] | -0.0929
